Results taken from publication PMC6901440.

Chains of the proteins cited; added tags and fusions are not shown. Lines headed by an entry give the natural chain unless they say otherwise; changes in a name come on top.
UniProt Q8NB16: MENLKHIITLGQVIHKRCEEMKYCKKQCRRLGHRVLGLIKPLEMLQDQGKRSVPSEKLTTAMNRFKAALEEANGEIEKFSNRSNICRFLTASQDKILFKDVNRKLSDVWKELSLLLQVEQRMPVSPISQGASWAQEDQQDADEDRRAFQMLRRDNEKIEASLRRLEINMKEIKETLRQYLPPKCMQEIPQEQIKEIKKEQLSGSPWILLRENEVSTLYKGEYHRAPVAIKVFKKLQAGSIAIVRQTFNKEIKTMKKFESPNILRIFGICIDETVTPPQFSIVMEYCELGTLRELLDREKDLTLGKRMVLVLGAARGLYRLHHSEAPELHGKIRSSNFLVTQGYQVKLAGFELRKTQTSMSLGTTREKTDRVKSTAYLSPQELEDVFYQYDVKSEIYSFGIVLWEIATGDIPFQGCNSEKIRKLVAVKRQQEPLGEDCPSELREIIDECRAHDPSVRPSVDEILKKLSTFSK
UniProt P10415: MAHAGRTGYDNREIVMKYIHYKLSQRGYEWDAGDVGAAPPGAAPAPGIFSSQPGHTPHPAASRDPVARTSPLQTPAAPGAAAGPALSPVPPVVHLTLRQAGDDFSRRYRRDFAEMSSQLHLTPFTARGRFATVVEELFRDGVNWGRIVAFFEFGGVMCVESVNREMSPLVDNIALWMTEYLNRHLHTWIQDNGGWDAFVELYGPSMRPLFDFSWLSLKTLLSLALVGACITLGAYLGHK

Biological target: Flag-MLKL T357D/S358E phosphorylation mimic (human) (UniProt Q8NB16)
Assay: co-IP; HEK-293T cells transfected with Flag-tagged GSDMD or MLKL constructs and Bcl-2 or Bcl-2 G145A (MLKL also with RIP3); anti-Flag agarose beads; Bcl-2 detected by blot; washed eight times with lysis buffer

## Bcl-2 (transfected, HEK-293T) (from UniProt P10415 1-239)
  binding: binds

These are yes or no findings as the source states them, for the method shown. Binding seen in cells or lysates may run through a third protein. A result given as binding can be weak or reduced; the word gives no strength.
